The other results are listed elsewhere or left out. The main result of the screen is listed elsewhere. These columns were measured beside it and carry no call. The list favours compounds with an active or inconclusive main result. Words in brackets tell the shape of the fitted curve; partial curves, single points and poor fits give uncertain potencies.

What is called AC50 is the concentration giving half of the maximal activity seen. Low readings indicate activity at low concentration, high ones activity only at high concentration.

The nature of this experiment: qHTS Assay for Lipid Storage Modulators in Drosophila S3 Cells.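 As to cell number change: cells counted by Cell Tracker Red CMTPX staining in the red channel.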 Conditions: BODIPY lipid droplet fluorescence, 18-24 h; for cell number change: measured here: cell count max response, cells fed with added oleic acid. Summed up: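 Laser-scanning cytometry quantifies lipid droplet accumulation (500–530 nm total intensity; droplet/cell object ratio) in oleic acid-fed (400 uM added) Drosophila S3 cells treated with a concentration series. 20 uM Triacsin C defined 100% inhibition.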
On the technique in general: In qHTS, concentration-response curves come from the screen itself.

The mark [1] stands for this setting: measured here: lipid fluorescence (Fed channel) AC50, cells fed with added oleic acid.
Where [2] appears, read: measured here: cell number channel AC50, cells fed with added oleic acid.

Regarding `CCn1c(=O)n(CC)c2cc(N3CCCC3)c(NC(=O)c3ccc(C)c([N+](=O)[O-])c3)cc21`, the cell number change stood at 3.88%.

Take `O=C(CSc1nc2ccccc2c(=O)n1Cc1ccccc1)Nc1ccc(Br)cc1C(=O)O`: the cell number change was found to be 5.65%. The AC50 under setting [1] is 0.651 µM [rising, full curve].

Regarding `COc1cc(C(=O)Nc2ccc3c(c2)OCO3)ccc1OCc1c(C)noc1C`, under setting [2], the AC50 was 0.146 µM [rising, partial curve, poor fit].

Turning to `CC(C)(C)n1nc2c(c1NC(=O)c1ccccc1C(F)(F)F)CS(=O)(=O)C2`, the cell number change worked out at 8.8%. Also, under setting [1], the AC50 was 0.82 µM [rising, full curve, poor fit].

With `CC1CCN(S(=O)(=O)N2CCC(C(=O)NCc3cccs3)CC2)CC1`, the cell number change came to 1.22%. The AC50 under setting [1] was 3.66 µM [rising, partial curve, poor fit].

Turning to `CC(C)(C)n1ncc2c(=O)n(CC(=O)N3CCCCC3)cnc21`, the cell number change is -43.5%. For the same compound, the AC50 under setting [2] is 6.51 µM [falling, single point]. For the same compound, the AC50 under setting [1] is 7.31 µM [falling, partial curve, poor fit].

As for `Cc1ccc(C(=O)Nc2ccc3c(c2)OCO3)cc1NC(=O)c1ccco1`, the half-maximal activity concentration (AC50) under setting [2] was 0.00517 µM [rising, full curve, poor fit].

For `Cc1ccccc1NC1=NCC(c2ccc([N+](=O)[O-])cc2)S1` (centres undefined), the AC50 under setting [1] was 0.82 µM [falling, full curve, poor fit].

Consider `CCOC(=O)N1CCN(C(=O)c2cc3ccccc3o2)CC1`, for which the cell number change came out at 17.3%. For the same compound, the AC50 under setting [1] is 0.58 µM [rising, single point].

In the case of `C[n+]1ccccc1N1CCN(c2ccccc2Cl)CC1`, the cell number change is 33.3%. The AC50 under setting [2] is 32.6 µM [rising, single point]. Further, the AC50 under setting [1] was 0.58 µM [falling, full curve].

With `COc1ccccc1CNC(=O)CSc1nc2ccccc2c(=O)n1CCCN1CCOCC1`, the cell number change is -6.15%. Also, the half-maximal activity concentration (AC50) under setting [2] was 5.17 µM [falling, single point].

In the case of `O=C(CSc1nc2ccccc2n1CC(=O)NCc1ccccc1)NCc1ccco1`, the cell number change is -5.47%. The AC50 under setting [1] is 2.06 µM [rising, single point].

In the case of `Cc1ccc2nc(CSc3nnc(Cc4cccs4)n3C3CCCCC3)cc(=O)n2c1`, the cell number change was -16.7%. The half-maximal activity concentration (AC50) under setting [1] was 0.461 µM [rising, full curve].

On to `Cc1cc(C)cc(N(CC(=O)NC(C)(C)C)C(=O)CCC(=O)Nc2ccccn2)c1`, for which the cell number change amounted to 10.5%. For the same compound, the AC50 under setting [1] was 18.4 µM [rising, single point].

Regarding `O=C(Cn1cnc2scc(-c3ccc(F)cc3)c2c1=O)NCC(c1ccco1)N1CCCC1` (centres undefined), the cell number change came out at 82%. Besides, the AC50 under setting [2] is 20.6 µM [rising, single point].

As to `Cc1cc2nc(-c3ccc(SCC(=O)N4CCc5ccccc54)nc3)[nH]c2cc1C`, the cell number change was -18.6%. Moreover, the AC50 under setting [2] was 0.731 µM [falling, full curve, poor fit]. In addition, the AC50 under setting [1] is 0.058 µM [falling, full curve, poor fit].

As to `CCOC(=O)N1CCN(C(=O)Nc2ccc3nc(-c4ccccn4)c(-c4ccccn4)nc3c2)CC1`, the AC50 under setting [1] was 23.1 µM [falling, partial curve].

Take `CCNc1ccc(C(=O)NN=C2CCCC2)cc1[N+](=O)[O-]`: the cell number change came out at 90.1%. Further, the AC50 under setting [2] was 0.146 µM [rising, full curve, poor fit]. Also, the AC50 under setting [1] is 0.206 µM [rising, full curve].

For `CSCCC(NC(=O)c1ccco1)C(=O)NCC(C)(C)N1CCOCC1` (centres undefined), the cell number change stood at 9.98%. For the same compound, under setting [1], the half-maximal activity concentration (AC50) is 0.164 µM [rising, full curve, poor fit].

As for `CN(C)C(=O)COC(=O)c1cc(Cl)cc(Cl)c1N`, the AC50 is 2.91 µM [rising, single point] under setting [2] and 18.4 µM [rising, partial curve] under setting [1].

As to `CC(=O)Nc1ccc(S(=O)(=O)NCC(=O)OCC(=O)NCc2ccco2)cc1`, the cell number change is -100%. Besides, the concentration at half-maximal activity (AC50) under setting [2] was 18.4 µM [falling, single point]. Also, under setting [1], the AC50 is 4.11 µM [rising, full curve, poor fit].

On to `CCc1cc(C(=O)N2CCCC(Nc3ccc(F)c(F)c3)C2)n(C)n1` (centres undefined), for which the cell number change is 10.8%. The AC50 under setting [1] was 0.259 µM [falling, partial curve, poor fit].

On to `COc1cccc(NC(=O)CSc2nc3ccccc3nc2N2CCOCC2)c1`, for which the cell number change was -29.1%. Besides, the AC50 under setting [1] is 13 µM [falling, partial curve, poor fit].

Turning to `Cc1cc(C)c(C#N)c(SCC(=O)C(C)(C)C)n1`, the cell number change was -13.3%. In addition, under setting [1], the AC50 was 0.291 µM [falling, full curve].

For the compound `C#CCOCCOCCOCCNc1nc(N2CCN(C(=O)CCCCCCCCCCNC(=O)[C@@H](CCSC)n3cc(CCO)nn3)CC2)nc(N2CCN(C(=O)CCCCCCCCCCNC(=O)[C@H]([C@@H](C)CC)n3cc(CCCCCN)nn3)CC2)n1`, the cell number change is -75.8%. Also, the AC50 under setting [2] is 25.9 µM [falling, single point].

`Cc1onc(C(=O)Nc2ccc3c(c2)OCO3)c1[N+](=O)[O-]`: the cell number change came to 6.65%. Moreover, under setting [2], the AC50 was 1.46 µM [rising, full curve, poor fit]. For the same compound, the AC50 under setting [1] is 29.1 µM [rising, single point].

As to `Cc1cc(SCC(=O)N2CCCC2=O)nc2c(C)cccc12`, the cell number change stood at 45.4%. Also, the AC50 under setting [2] is 8.2 µM [rising, partial curve]. Under setting [1], the AC50 is 6.51 µM [rising, single point].

As for `O=C(c1cc(Cl)ccc1Cl)N1CCOCC1`, the cell number change was -9.26%. For the same compound, the AC50 under setting [2] was 0.184 µM [rising, full curve, poor fit]. Moreover, the AC50 under setting [1] was 0.651 µM [falling, single point].

For `O=S(=O)(N1CCOCC1)n1nnc2ccccc21`, the cell number change is -14.5%. Also, under setting [1], the AC50 is 0.00651 µM [falling, full curve, poor fit].

As to `CC1(C)CC(=O)C2=C(C1)Nc1ccccc1NC2`, the cell number change amounted to 17%. In addition, the half-maximal activity concentration (AC50) under setting [1] was 6.51 µM [falling, single point].

Regarding `CC1CCCCC12NC(=O)N(CC(=O)Nc1sccc1C(N)=O)C2=O` (centres undefined), the cell number change came out at 18.6%. Besides, the AC50 under setting [1] is 0.184 µM [rising, full curve].

Take `CC(=O)Nc1cccc(C(=O)/C=C/c2ccc(/C=C/C(=O)c3cccc(NC(C)=O)c3)cc2)c1`: under setting [1], the AC50 was 4.61 µM [falling, partial curve].

Regarding `CCOC(=O)C1=C(c2ccccc2)NC(=O)NC1c1ccc(O)c(OCC)c1` (centres undefined), the cell number change is -6.34%. Also, the half-maximal activity concentration (AC50) under setting [2] is 6.51 µM [rising, partial curve, poor fit]. In addition, the AC50 under setting [1] is 6.51 µM [rising, partial curve, poor fit].

Consider `Cc1ccc(NC(=O)CC2SC(=O)NC2=O)cc1` (centres undefined), for which the cell number change is -10.7%. Moreover, under setting [2], the AC50 is 0.206 µM [falling, partial curve, poor fit]. Besides, the AC50 under setting [1] was 23.1 µM [rising, single point].

`CCOc1ccc(S(=O)(=O)N2CCNC(=O)C2)cc1`: the cell number change was found to be 7.08%.

On to `CCOC(=O)C1=C(N)N2C(=O)C(C)SC2=C(C(=O)OC)C1c1cccc(OC)c1` (centres undefined), for which the cell number change is -23.1%. Under setting [1], the AC50 was 18.4 µM [falling, partial curve].

As to `COc1nc(Cc2ccc(Cl)cc2)nc2ccccc12`, the cell number change is 19.4%.

As to `Cc1nc2ccccc2c(=O)n1C1CCCCCC1`, the cell number change was -15.3%.

As to `CC(=O)Oc1ccc(-c2cccc(C(=O)N3CCCCC3)c2)cc1`, the cell number change was -29.4%. The half-maximal activity concentration (AC50) under setting [2] is 0.231 µM [falling, full curve, poor fit]. Besides, the half-maximal activity concentration (AC50) under setting [1] was 6.51 µM [falling, single point].

For `CCN(Cc1cc2cc(C)ccc2[nH]c1=O)S(=O)(=O)c1ccccc1`, the cell number change stood at 42.2%. In addition, the AC50 under setting [2] was 13 µM [rising, partial curve, poor fit]. Under setting [1], the AC50 was 0.146 µM [falling, full curve, poor fit].

As for `Cc1nn(-c2ccc(N3CCOCC3)nn2)c(C)c1CCC(=O)Nc1ccccc1`, the AC50 under setting [1] is 29.1 µM [rising, single point].

`Cc1ccc(NC(=O)c2cc(C)nc3ccccc23)cc1`: the cell number change was 11.8%. In addition, the AC50 under setting [1] is 20.6 µM [falling, single point].

As for `CC(C)Oc1cccc(C(=O)NC(=S)Nc2ccc3c4c(cccc24)CC3)c1`, the cell number change was -12.2%. For the same compound, the concentration at half-maximal activity (AC50) under setting [1] was 0.184 µM [falling, full curve, poor fit].

Take `CCN(CC)S(=O)(=O)c1cc(NC(=O)C(C)OC(=O)c2[nH]c(C)c(C(C)=O)c2C)ccc1C` (centres undefined): the cell number change is -35.4%. For the same compound, the concentration at half-maximal activity (AC50) under setting [2] was 4.61 µM [falling, partial curve].

Consider `O=C(Nc1ccc(C(=O)N2CCCCC2)cc1)c1ccc(Br)cc1`, for which the cell number change was -17.3%.

With `CCOC(=O)Nc1ccc(S(=O)(=O)Nc2nc(C)cc(C)n2)cc1`, the cell number change was -8.41%. The AC50 under setting [2] was 2.06 µM [falling, partial curve, poor fit]. Also, under setting [1], the concentration at half-maximal activity (AC50) was 18.4 µM [falling, single point].

Turning to `Cc1c(C)n(CCCN(C)C)c2ncnc(NCc3ccccc3)c12`, the cell number change is 52.8%. Moreover, the AC50 under setting [2] is 29.1 µM [rising, single point].

For the compound `CCCCNC(=S)NNC(=O)c1ccc(Br)o1`, the cell number change is 2.57%. Further, under setting [1], the AC50 is 2.91 µM [rising, partial curve].

In the case of `COc1ccc(CCC(=O)Nc2cc(Cl)ccc2OC)cc1`, the cell number change worked out at 176%. Under setting [2], the AC50 was 6.51 µM [rising, partial curve]. Besides, the AC50 under setting [1] was 20.6 µM [rising, partial curve].

`O=C(c1cnn2c(C(F)(F)F)cc(-c3ccco3)nc12)N1CCCc2ccccc21`: the cell number change is -1.44%.

On to `Cc1nn(CC(=O)O)c(C)c1Cl`, for which the cell number change is -17%. Moreover, the AC50 under setting [1] was 0.146 µM [falling, full curve, poor fit].

Consider `CCCC[C@@H]1CNCCN1CCCc1cc(OC)c(OC)c(OC)c1`, for which the cell number change was -24.4%. The AC50 under setting [2] was 0.146 µM [falling, full curve, poor fit]. The concentration at half-maximal activity (AC50) under setting [1] was 0.411 µM [falling, full curve].

As to `Cc1ccc(-c2cc(C(=O)N/N=C/c3ccco3)[nH]n2)cc1`, the cell number change is -39.9%. Under setting [2], the AC50 was 32.6 µM [falling, single point].

On to `CCOC(=O)c1cnc(SCC(C)C)nc1N`, for which the cell number change was -11.5%.

Take `CCCC(C)NC(=O)Cc1ccc(Br)cc1` (centres undefined): the cell number change was -1.49%. Also, the concentration at half-maximal activity (AC50) under setting [1] is 2.06 µM [falling, partial curve].

In the case of `COc1ccc(-c2nn(-c3ccccc3)cc2CO)cc1`, the cell number change amounted to 5.06%. Further, the AC50 under setting [2] was 0.731 µM [rising, partial curve, poor fit].

These data come from PubChem BioAssay AID2685 (National Center for Advancing Translational Sciences (NCATS), 2010).
